# The campaign covered roughly 330,000 compounds. About 7,700 (2.3%) were called active. Inconclusive means that the source gave no clear call. Such entries were picked first, then a sample of the others. The call rests on the fitted dose curve; in most records, active means well fitted inhibition curve with a large enough effect; inconclusive means small, poorly fitted or top-dose-only effect, or effect the other way; inactive means flat fitted curve, though single readings scatter. Potencies beside an inconclusive call are fits to weak or partial responses and may not hold up.
# Assay: qHTS screen for small molecules that inhibit ELG1-dependent DNA repair in human embryonic kidney (HEK293T) cells expressing luciferase-tagged ELG1; further: nearly all actives have a fitted effect of over 55% in size
# Conditions: HEK293T ELG1-luciferase reporter, luminescence, 16 h, DNA damage induced by 5-fluorouridine; activity change, negative = inhibition: at 46.1 µM (top of the series)
# Procedure, shortened: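 Cells (2,000 per well) received 5-fluorouridine plus test compound or DMSO and were incubated 16 hr at 37 °C, 5% CO2. Luciferase activity was read by luminescence 30 min after ONE-Glo addition; signal suppression marked inhibition of damage-induced ELG1 function.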
# On the % scale 0 is the no-effect control and ±100 the full control effect; potency means the concentration at half of the fitted maximal effect.
Compound,"activity change, negative = inhibition",Potency
NS(=O)(=O)c1cccc(NC(=O)CSc2ncc(C(F)(F)F)cc2Cl)c1,inactive: 2.8%,
Cc1ccc(C)c(Cn2nnc3c(=O)[nH]c(C4CCN(C(=O)c5cccs5)CC4)nc32)c1,,"inconclusive: 18.4 µM [inhibitor, single point]"
COc1cc(C(=O)OC(C)C(=O)Nc2ccc3c(c2)OCCO3)cc(OC)c1OC (stereo not given),,"inconclusive: 18.3 µM [inhibitor, partial curve]"
COc1cc(OC)cc(-c2c(C#Cc3ccsc3)c3cc(-c4cnc(OC)nc4)ccc3n2C)c1,,"inconclusive: 1.83 µM [inhibitor, full curve, poor fit]"
O=C(c1ccccc1F)n1c2c(c3ccccc31)CCCC2,,"inconclusive: 29.1 µM [inhibitor, single point]"
COc1ccc(CN([C@H](CO)CC(C)C)S(=O)(=O)N(Cc2ccccc2)[C@H](CO)CC(C)C)cc1,,"inconclusive: 29.1 µM [inhibitor, single point]"
C=CCc1c(C)nc(SC)nc1Nc1ccc(C(C)=O)cc1,,active: 7.31 µM
CC(C)C(NC(=O)CSc1ccc(Cl)cc1)C(C)C,,"inconclusive: 20.6 µM [inhibitor, partial curve, poor fit]"
c1cc2c(cc1CNc1ccc(N3CCOCC3)cc1)OCO2,,"inconclusive: 8.2 µM [activator, partial curve]"
Cc1cccc(Nc2c([N+](=O)[O-])c(=O)n(C)c3ccccc23)c1,inactive: 3.02%,
Cc1cccc(C(=O)NC(=S)NCc2cccnc2)c1,inactive: -4.32%,
CC1CCN(Cc2c(C(=O)N/N=C/c3cc(Br)ccc3O)nnn2-c2nonc2N)CC1,,active: 2.59 µM
COc1ccc(N(C(C)C(=O)N2CCCC2)S(C)(=O)=O)cc1 (stereo not given),inactive: -10.1%,
Cc1ccc(Cc2nnc(SCC(=O)Nc3ccccc3)n(N)c2=O)cc1,inactive: 0.809%,
CCCCN1C(=O)C(=O)N(c2ccccc2)C1=S,,"inconclusive: 8.2 µM [activator, partial curve]"
CCN1C(=O)N(CC)C(O)(c2ccccc2)C1(O)c1ccccc1 (stereo not given),inactive: -0.362%,
CC(=O)c1c(-c2ccc(Cl)cc2)c2ccccc2[nH]c1=O,,"inconclusive: 32.6 µM [inhibitor, partial curve, poor fit]"
CCOC(=O)C1=C(CSc2nc(CC)c(C)cc2C#N)OC(N)=C(C#N)C1c1ccccc1 (stereo not given),inactive: 4.52%,
COc1ccc(C(=O)NCC(=O)c2ccccc2)cc1,,"inconclusive: 11.2 µM [activator, partial curve]"
COc1cc(C(=O)NCCCNc2nc3cc(C)cc(C)c3cc2C#N)cc(OC)c1OC,,"inconclusive: 9.2 µM [inhibitor, partial curve]"
O=C(COc1ccccc1)NNc1nc2ccccc2s1,,"inconclusive: 29.1 µM [activator, single point]"
COc1cccc(NC(=O)CN(C)C(=O)Cc2c(C)nc3ccccc3c2C)c1,,"inconclusive: 20.6 µM [inhibitor, single point]"
Cc1ccc(OCCCN(C)C)c(Br)c1,inactive: 2.65%,
Brc1ccccc1-c1nnc(CSc2nnc3sc4ccccc4n23)o1,inactive: 16%,
Cc1c(/C=C/C(=O)c2ccccc2)cnn1C,,"inconclusive: 11.2 µM [activator, partial curve]"

# A few values from the results shown:
# Potency, c1cc2c(cc1CNc1ccc(N3CCOCC3)cc1)OCO2 reads inconclusive: 8.2 µM [activator, partial curve]
# activity change, negative = inhibition, Cc1cccc(C(=O)NC(=S)NCc2cccnc2)c1 reads inactive: -4.32%
# Potency, COc1cc(OC)cc(-c2c(C#Cc3ccsc3)c3cc(-c4cnc(OC)nc4)ccc3n2C)c1 reads inconclusive: 1.83 µM [inhibitor, full curve, poor fit]
# Potency, O=C(COc1ccccc1)NNc1nc2ccccc2s1 reads inconclusive: 29.1 µM [activator, single point]
# Potency, Cc1c(/C=C/C(=O)c2ccccc2)cnn1C reads inconclusive: 11.2 µM [activator, partial curve]
# Potency, CC(=O)c1c(-c2ccc(Cl)cc2)c2ccccc2[nH]c1=O reads inconclusive: 32.6 µM [inhibitor, partial curve, poor fit]
# activity change, negative = inhibition, Brc1ccccc1-c1nnc(CSc2nnc3sc4ccccc4n23)o1 reads inactive: 16%

# Later entries:

Compound,"activity change, negative = inhibition",Potency
C=CCn1c(COc2ccc(OC)cc2)nc2ccccc21,,"inconclusive: 23.1 µM [activator, single point]"
COc1ccccc1N1C(=O)C2C3CC(c4ccccc4)C(C3)C2C1=O (stereo not given),,"inconclusive: 16.4 µM [inhibitor, partial curve]"
CCOC(=O)c1cccc(NC(=O)CCNS(=O)(=O)c2ccc3c(c2)CCN3C(=O)CC)c1,,"inconclusive: 2.91 µM [activator, single point]"
COc1ccc(S(=O)(=O)N2CCCCCC2)cc1C(=O)Nc1ccc(C)cn1,inactive: -10.6%,
O=C(NCc1ccco1)c1cc(-c2ccc(Cl)cc2)on1,,"inconclusive: 7.31 µM [activator, partial curve]"
COc1ccc(Cc2nc3ccc(C(=O)N4CCCC4)cc3o2)cc1,,"inconclusive: 23.1 µM [activator, partial curve]"
COc1ccc(/C=N\NC(=O)C2COc3ccccc3O2)cc1O (stereo not given),,"inconclusive: 20.6 µM [inhibitor, single point]"
CCN(CC)S(=O)(=O)c1cc(C(=O)Nc2nncs2)c(Cl)cc1Cl,,"inconclusive: 29.1 µM [activator, single point]"
CC(C)=CC(=O)Nc1nnc(C)s1,,"inconclusive: 18.4 µM [activator, single point]"
CN(C)c1ccc(C(=S)NCc2ccco2)cc1,,"inconclusive: 0.651 µM [activator, full curve]"
O=C(Nc1ccc(C(=O)O)cc1)/C(=C\C=C\c1ccccc1)NC(=O)c1cccc(Br)c1,inactive: 8.36%,
O=C(CNCc1cccs1)Nc1ccc(OC(F)(F)F)cc1,,"inconclusive: 23.1 µM [activator, single point]"
CCn1cc(CN(C)C(=O)/C=C/c2ccc([N+](=O)[O-])cc2)c(C)n1,inactive: -8.53%,
CCCc1c2ccccc2nc2ccccc12,,"inconclusive: 8.2 µM [inhibitor, partial curve, poor fit]"
CC(C)(C)C1CCc2c(sc3ncn(N)c(=N)c23)C1 (stereo not given),,"inconclusive: 18.3 µM [inhibitor, single point]"
CC(=O)N1N=C(c2ccc(Cl)cc2)OC1c1ccc(C(C)C)cc1 (stereo not given),,"inconclusive: 23.1 µM [activator, partial curve]"
COc1ccc(-c2cc(C(F)F)n3ncc(C(=O)N4CCN(C)CC4)c3n2)cc1,,active: 7.31 µM
CC(=O)c1ccccc1NC(=O)COC(=O)CCC1CCCC1,inactive: 9.52%,
Cc1ccc(CN=Cc2[nH]c3ccc(Br)c(Cl)c3c2O)cc1,inactive: 0.849%,
O=C(CCS(=O)(=O)Cc1ccccc1)NCc1ccco1,inactive: 5.42%,
Cn1cnnc1SCCOc1ccc(Cl)cc1,,"inconclusive: 18.3 µM [activator, single point]"
CCCCn1c(SCC(=O)Nc2ccc3c(c2)OCO3)nc2c1c(=O)n(C)c(=O)n2C,,"inconclusive: 29.1 µM [inhibitor, single point]"
O=C(NCc1ccccc1)c1cccc(F)c1F,,"inconclusive: 29.1 µM [activator, single point]"
Cc1ccc(C(=O)O/N=C/c2ccc3c(c2)OCO3)cc1,inactive: 4.07%,
CCOC(=O)n1ccc(C(=O)Nc2ccccc2F)n1,,"inconclusive: 10.3 µM [activator, partial curve, poor fit]"

Compound,"activity change, negative = inhibition",Potency
COC(=O)c1cc(NC(=S)NCc2ccc(Cl)cc2)cc(C(=O)OC)c1,inactive: -0.0662%,
CCOC(=O)c1ccccc1NC(=O)Cc1ccc(OC)c(S(=O)(=O)N2CCOCC2)c1,inactive: 0%,
CN(Cc1ccccn1)Cc1nc(-c2ccc(Cl)cc2)no1,,"inconclusive: 29.1 µM [activator, single point]"
CC1(C)Cc2c(sc(NC(=O)c3ccc(Br)o3)c2C#N)CO1,,"inconclusive: 1.84 µM [activator, partial curve]"
Cc1ccc(CNC(=O)/C=C/c2ccc(Br)o2)cc1,inactive: -4.5%,
S=c1[nH]nc(C2CCCCC2)n1/N=C/c1ccco1,inactive: -6.53%,
Clc1ccccc1CSc1snnc1-c1ccccc1,,"inconclusive: 18.4 µM [activator, single point]"
CC(C)Sc1nc(N)c2c3c(sc2n1)CN(C)CC3,,"inconclusive: 20.6 µM [activator, partial curve, poor fit]"
COc1ccc(N2CCN(S(=O)(=O)CCNC(=O)C3CC3)CC2)cc1,inactive: -2.25%,
Cc1nn(C)cc1CNC(=O)Nc1ccc(Cl)c(Cl)c1,,"inconclusive: 14.6 µM [activator, partial curve]"
Cc1cccc(N2CCN(C(=O)CS(=O)(=O)Cc3nc(-c4ccccc4F)oc3C)CC2C)c1 (stereo not given),,"inconclusive: 18.4 µM [inhibitor, single point]"
COc1ccc(CN(C(=O)c2cc3ccccc3oc2=O)C2CCCCC2)cc1OC,,"inconclusive: 29.1 µM [inhibitor, single point]"
Oc1c(Br)cc(/C=N/NC(=S)NCC2CCCO2)cc1Br (stereo not given),,"inconclusive: 29.1 µM [inhibitor, single point]"
Cc1ccc(NC(=O)N2C3CCCC2CC(NC(=O)C(C)(C)C)C3)cc1 (stereo not given),inactive: 0.756%,
CCc1ccc(N=Nc2ccc(O)c3[nH]cnc23)cc1,,"inconclusive: 20.6 µM [activator, partial curve]"
CC(=O)NCc1ccc(S(=O)(=O)N2CCCN(C)CC2)cc1,inactive: 6.48%,
CC(C)OCCCNC(=S)Nc1ccc2nc3n(c(=O)c2c1)CCCCC3,,"inconclusive: 29.1 µM [inhibitor, single point]"
Cc1ccc(S(=O)(=O)NC(CC(C)C)C(=O)NCCCn2nc(C)cc2C)cc1 (stereo not given),inactive: 3.04%,
O=C(N=Nc1c(O)[nH]c2ccccc12)c1cccs1,,"inconclusive: 2.59 µM [activator, full curve]"
Cc1cc(SCc2ccc(Cl)c(Cl)c2)nc(=O)[nH]1,,"inconclusive: 20.6 µM [activator, single point]"
Oc1cccc(/C=N/Nc2cc(N3CCCC3)nc(N3CCCC3)n2)c1,,active: 25.9 µM
O=C(NNS(=O)(=O)c1ccccc1)C1CC(c2cccnc2)=NO1 (stereo not given),inactive: -3.47%,
COc1ccc(-c2cc3nc4c(c(=O)n3[nH]2)CCC4)cc1,,"inconclusive: 14.6 µM [activator, partial curve]"
CCn1cnnc1SCC(=O)NCC1COc2ccccc2O1 (stereo not given),,"inconclusive: 23.1 µM [activator, single point]"
CCCCOc1ccc(/C=C/C(=O)OCC(=O)N2CC(=O)Nc3ccccc32)cc1OCC,,"inconclusive: 7.31 µM [inhibitor, partial curve, poor fit]"
